Experimental data from patent US9249097B2, “3-aminocarbazole compound, pharmaceutical composition containing it and preparation method therefor” (AZIENDE CHIM. RIUN. ANG. FRANC. A.C.R.A.F. S.p.A., priority 2008, dated 2016).

Assay: in vitro
Settings: human, Caco-2, pH 7.4
Experimental: This test allows evaluation of the amount absorbed by the intestinal barrier of the compounds of the invention and of the comparative compounds using the Caco-2 cell line as an in vitro model of intestinal barrier. The permeability test on Caco-2 cells represents an in vitro system approved for predicting and estimating the in vivo intestinal absorption of a drug. When the Caco-2 cells are cultured on a porous filter for about 21 days, they have the capacity to differentiate into enterocytes.
The compounds undergoing the test were diluted from a 10 mM stock solution in HBSS to a final concentration of 10 μM. The system consisted of a confluent cellular monolayer in culture for 21-28 days. […]
The samples collected at the given time were analysed by HPLC-MS/MS, using an electrospray ion source in positive ionization and SRM (Single Reaction Mode). […]
The concentration data were used to calculate the apparent permeability values (Papp), and the mean and standard deviation of the Papp were calculated.
The flux ratio was calculated as Papp(B→A)/Papp(A→B). The recovery percentage was calculated as: (amount in the receiving compartment+amount in the donor compartment)/nominal amount
The area of the peaks of the test compounds were integrated and the results were expressed as the analyte area/internal standard area ratio and corrected for the dilution factor used during the preparation of the sample. […]

CC(C)NCC(O)COc1ccc(CC(N)=O)cc1 (stereo not shown) [Atenolol, atenolol, reference compound]
Papp at 3600 seconds, 10 μM: < 2 ×10⁻⁶ cm/s
